Measurements from PMC7484505.
These are yes or no findings as the source states them, for the method shown. Some entries that bind do so weakly or less than the wild type.

Amino acid sequences for entries named in this document (tags omitted). A change or cut given only in a name is not applied to a line headed by its entry.
UniProt Q8NER1: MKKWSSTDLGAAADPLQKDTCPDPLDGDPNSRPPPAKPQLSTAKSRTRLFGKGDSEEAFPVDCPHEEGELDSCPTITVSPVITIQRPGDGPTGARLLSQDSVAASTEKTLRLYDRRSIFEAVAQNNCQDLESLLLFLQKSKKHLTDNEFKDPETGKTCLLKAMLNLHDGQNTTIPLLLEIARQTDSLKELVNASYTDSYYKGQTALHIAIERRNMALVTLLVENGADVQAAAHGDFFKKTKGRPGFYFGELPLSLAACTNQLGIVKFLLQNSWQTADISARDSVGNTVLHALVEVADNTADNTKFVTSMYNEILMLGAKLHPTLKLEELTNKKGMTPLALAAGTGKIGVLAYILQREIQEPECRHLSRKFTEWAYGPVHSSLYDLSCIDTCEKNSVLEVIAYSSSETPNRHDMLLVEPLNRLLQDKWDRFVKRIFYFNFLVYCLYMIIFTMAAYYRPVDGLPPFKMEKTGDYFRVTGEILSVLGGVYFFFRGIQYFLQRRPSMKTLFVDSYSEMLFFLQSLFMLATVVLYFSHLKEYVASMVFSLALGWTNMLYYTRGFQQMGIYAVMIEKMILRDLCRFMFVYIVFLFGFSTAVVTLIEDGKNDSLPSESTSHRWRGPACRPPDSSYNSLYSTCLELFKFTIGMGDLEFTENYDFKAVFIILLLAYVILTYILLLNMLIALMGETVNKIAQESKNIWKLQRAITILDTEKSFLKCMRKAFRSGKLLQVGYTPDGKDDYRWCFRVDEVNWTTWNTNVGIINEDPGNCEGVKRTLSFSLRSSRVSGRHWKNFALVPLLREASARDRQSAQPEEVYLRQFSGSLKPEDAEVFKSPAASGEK

Experiments:
hTRPV1^GFP (human) = hTRPV1^GFP (human) (UniProt Q8NER1); assay: native gel or EMSA; hrCN-PAGE of the same digitonin extracts after partial denaturation (1-h incubation with 0.1% LiDS at 37°C); GFP fluorescence scanning
hNav1.7^GFP (human) = hNav1.7^GFP (human) (UniProt Q15858); assay: condition: only after 1-h incubation with 0.1% LiDS at 37°C (partial denaturation); native gel or EMSA; hrCN-PAGE of the same digitonin extracts after partial denaturation (1-h incubation with 0.1% LiDS at 37°C); GFP fluorescence scanning

binding (hTRPV1^GFP (human)) | binding (hNav1.7^GFP (human)) | Substance
binds | – | hTRPV1^GFP (from UniProt Q8NER1-1 1-839)
– | no binding | hNav1.7^GFP (from UniProt Q15858-3 1-1977)
